Amino acid sequences for entries named in this document (tags omitted). A change or cut given only in a name is not applied to a line headed by its entry.
UniProt M4Y9G5: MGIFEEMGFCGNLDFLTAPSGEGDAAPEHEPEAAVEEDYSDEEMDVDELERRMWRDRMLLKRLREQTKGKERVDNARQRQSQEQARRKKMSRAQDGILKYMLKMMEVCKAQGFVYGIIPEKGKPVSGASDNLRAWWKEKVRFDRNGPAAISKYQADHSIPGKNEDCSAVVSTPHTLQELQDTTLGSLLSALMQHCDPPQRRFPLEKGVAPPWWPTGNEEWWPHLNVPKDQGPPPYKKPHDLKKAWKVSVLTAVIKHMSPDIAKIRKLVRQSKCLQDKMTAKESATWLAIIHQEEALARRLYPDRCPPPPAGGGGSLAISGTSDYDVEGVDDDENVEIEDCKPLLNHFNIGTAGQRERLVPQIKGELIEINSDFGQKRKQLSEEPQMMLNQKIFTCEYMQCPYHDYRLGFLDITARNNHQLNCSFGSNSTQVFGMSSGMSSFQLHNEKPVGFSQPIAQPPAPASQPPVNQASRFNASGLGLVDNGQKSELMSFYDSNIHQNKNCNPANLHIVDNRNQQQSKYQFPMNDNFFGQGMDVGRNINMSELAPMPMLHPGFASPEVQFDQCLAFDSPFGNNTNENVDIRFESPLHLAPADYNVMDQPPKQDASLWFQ
UniProt D9ZIM1: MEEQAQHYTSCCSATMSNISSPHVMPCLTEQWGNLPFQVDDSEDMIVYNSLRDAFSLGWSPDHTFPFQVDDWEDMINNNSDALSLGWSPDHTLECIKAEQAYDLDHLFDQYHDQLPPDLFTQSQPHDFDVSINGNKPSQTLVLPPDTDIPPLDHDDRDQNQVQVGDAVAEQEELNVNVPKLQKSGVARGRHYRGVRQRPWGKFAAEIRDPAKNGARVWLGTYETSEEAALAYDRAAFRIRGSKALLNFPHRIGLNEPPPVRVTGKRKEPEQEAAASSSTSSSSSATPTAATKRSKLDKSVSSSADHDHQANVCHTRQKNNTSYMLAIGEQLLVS
UniProt D9ZIM0: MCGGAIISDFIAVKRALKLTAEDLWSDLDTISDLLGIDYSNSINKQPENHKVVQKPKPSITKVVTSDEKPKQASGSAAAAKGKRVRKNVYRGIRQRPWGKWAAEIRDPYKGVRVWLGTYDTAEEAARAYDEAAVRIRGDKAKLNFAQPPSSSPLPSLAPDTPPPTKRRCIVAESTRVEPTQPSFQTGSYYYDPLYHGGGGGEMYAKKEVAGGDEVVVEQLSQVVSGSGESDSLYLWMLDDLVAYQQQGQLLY

According to PMC3604122:

Molecular target: ZMdEIL2 (apple (Malus x domestica), cultivar 'Taishanzaoxia') (UniProt M4Y9G5)
Test: split reporter; BiFC: X-nYFP and cYFP-X fusions co-infiltrated by Agrobacterium into the same onion epidermis cells, 24°C for 48 h, YFP signal read with a confocal microscope

| binding | Substance |
| --- | --- |
| binds | ZMdERF2 (from UniProt D9ZIM1) |
| binds | ZMdERF1 (from UniProt D9ZIM0) |

These are yes or no findings as the source states them, for the method shown. Binding seen in cells or lysates may run through a third protein. A result given as binding can be weak or reduced; the word gives no strength.
